Measured values taken from patent publication US6225451.
The exact form of at least one protein or probe is not confirmed. Tags and fusion partners may be left off the protein sequences shown.

Tested on: T1, CHD1.ZnF3-8 (CHD1 zinc fingers 3 through 8) (Homo sapiens)
T1 sequence (limits assumed): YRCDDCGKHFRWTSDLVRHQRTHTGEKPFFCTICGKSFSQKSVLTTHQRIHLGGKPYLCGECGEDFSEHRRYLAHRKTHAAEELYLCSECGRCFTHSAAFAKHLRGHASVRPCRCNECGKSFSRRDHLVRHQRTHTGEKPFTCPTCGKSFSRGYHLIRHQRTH
Assay: SELEX
Settings: consensus from selection of random oligonucleotides on GST fusion on sepharose; purified recombinant protein; protein details: N-terminal GST (pGEX-4T-3), E. coli BL21; only the motif is given

## GGGGT (double strand) [CHD1 consensus motif]
  selection result: selected
